Some of the results follow.
Assays:
[1] = molecular target: PAXIP1_Q6ZW49_933_HIVTPEWLEECFR (UniProt Q6ZW49); assay: probe-labelled cysteine peptide fold change vs DMSO (competition) (log2 fold change); higher = less target engagement (more negative = stronger competition); settings: THP-1, incubation time: 4 h
[2] = molecular target: PBRM1_Q86U86_979_NSMYHVGDYVYVEPAEANLQPHIVCIER (UniProt Q86U86); assay: as above; settings: THP-1, incubation time: 4 h
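Also: competitive profiling in live THP-1 cells: cysteine peptides tagged with an iodoacetamide desthiobiotin (IA-DTB) probe, intensity after compound treatment relative to DMSO-treated cells.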

Chains of the proteins cited; added tags and fusions are not shown.
UniProt Q6ZW49, whole entry, looked up: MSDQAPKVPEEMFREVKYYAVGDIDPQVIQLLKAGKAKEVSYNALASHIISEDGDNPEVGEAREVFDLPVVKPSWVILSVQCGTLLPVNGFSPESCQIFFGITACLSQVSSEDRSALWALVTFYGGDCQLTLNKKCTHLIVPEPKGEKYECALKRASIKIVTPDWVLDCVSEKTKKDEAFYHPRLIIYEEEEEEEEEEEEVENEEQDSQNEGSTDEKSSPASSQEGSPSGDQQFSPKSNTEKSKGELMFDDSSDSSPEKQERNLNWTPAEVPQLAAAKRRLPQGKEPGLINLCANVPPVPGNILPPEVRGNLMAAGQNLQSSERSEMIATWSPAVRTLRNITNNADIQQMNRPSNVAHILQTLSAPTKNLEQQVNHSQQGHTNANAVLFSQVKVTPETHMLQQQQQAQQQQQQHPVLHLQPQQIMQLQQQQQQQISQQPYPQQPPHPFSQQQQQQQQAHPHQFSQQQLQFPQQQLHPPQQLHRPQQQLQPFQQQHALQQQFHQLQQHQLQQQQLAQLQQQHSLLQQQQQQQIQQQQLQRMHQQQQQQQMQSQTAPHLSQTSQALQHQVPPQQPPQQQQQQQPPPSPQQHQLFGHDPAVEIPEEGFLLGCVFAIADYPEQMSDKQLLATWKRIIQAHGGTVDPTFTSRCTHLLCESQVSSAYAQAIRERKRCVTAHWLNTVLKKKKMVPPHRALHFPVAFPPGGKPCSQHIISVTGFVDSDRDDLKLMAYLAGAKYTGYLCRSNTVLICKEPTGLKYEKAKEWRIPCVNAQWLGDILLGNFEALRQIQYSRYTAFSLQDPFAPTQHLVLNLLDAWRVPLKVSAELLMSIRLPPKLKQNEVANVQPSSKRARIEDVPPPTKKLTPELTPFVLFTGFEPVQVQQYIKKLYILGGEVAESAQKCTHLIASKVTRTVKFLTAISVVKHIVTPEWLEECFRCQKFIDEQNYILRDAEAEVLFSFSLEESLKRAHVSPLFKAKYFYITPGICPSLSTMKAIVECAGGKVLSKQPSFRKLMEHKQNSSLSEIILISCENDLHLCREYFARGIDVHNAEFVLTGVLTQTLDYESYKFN
UniProt Q86U86, whole entry, looked up: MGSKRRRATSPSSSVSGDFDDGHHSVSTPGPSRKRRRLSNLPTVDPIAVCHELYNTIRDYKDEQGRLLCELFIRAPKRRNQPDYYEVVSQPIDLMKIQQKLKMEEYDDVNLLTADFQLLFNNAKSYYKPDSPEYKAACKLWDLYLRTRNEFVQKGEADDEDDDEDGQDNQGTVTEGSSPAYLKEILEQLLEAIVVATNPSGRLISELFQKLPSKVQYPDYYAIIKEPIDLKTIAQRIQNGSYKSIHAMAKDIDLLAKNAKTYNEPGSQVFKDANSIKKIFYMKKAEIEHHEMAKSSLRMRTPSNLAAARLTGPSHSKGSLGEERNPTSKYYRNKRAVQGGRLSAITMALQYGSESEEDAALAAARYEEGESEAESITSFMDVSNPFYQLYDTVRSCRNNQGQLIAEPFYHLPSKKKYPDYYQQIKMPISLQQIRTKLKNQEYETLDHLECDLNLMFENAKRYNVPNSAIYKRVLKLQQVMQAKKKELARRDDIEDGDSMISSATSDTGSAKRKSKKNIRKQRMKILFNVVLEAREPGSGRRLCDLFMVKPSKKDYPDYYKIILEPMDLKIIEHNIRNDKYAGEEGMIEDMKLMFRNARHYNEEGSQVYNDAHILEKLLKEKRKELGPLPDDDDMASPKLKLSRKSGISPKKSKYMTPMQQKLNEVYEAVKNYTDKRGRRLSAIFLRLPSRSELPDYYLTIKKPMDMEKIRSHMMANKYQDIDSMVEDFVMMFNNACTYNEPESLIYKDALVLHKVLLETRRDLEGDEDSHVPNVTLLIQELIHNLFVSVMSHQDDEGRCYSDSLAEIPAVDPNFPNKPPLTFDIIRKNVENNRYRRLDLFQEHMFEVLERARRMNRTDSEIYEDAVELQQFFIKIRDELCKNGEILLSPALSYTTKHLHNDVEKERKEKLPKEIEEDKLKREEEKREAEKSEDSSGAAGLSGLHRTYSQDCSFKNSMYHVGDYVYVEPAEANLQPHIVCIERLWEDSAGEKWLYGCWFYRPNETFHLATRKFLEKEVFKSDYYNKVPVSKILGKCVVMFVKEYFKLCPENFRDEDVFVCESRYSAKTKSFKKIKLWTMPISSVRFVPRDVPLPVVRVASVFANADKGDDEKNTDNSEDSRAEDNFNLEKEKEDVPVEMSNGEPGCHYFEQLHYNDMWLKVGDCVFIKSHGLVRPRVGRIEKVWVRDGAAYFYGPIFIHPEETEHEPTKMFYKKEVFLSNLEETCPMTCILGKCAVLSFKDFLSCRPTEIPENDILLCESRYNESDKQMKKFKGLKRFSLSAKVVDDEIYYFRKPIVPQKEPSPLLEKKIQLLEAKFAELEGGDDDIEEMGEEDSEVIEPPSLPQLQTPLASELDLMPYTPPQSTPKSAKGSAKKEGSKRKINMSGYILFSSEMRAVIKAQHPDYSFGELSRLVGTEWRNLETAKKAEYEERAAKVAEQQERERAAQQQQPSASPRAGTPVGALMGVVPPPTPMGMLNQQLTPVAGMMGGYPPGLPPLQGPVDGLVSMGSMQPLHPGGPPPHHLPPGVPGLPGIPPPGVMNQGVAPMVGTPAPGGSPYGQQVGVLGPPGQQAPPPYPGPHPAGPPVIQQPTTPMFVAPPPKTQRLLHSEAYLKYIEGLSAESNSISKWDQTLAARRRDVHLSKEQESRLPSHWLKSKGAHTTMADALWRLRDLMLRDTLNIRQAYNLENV

SMILES: Cc1cc(C(=O)N2CCCN(C(=O)CCl)CC2)ccc1-c1ccccc1 [compound 10]
- probe-labelled cysteine peptide fold change ([1]; 10 µM): -0.00632
- probe-labelled cysteine peptide fold change ([1]; 50 µM): 0.0808
- probe-labelled cysteine peptide fold change ([2]; 10 µM): 0.294
- probe-labelled cysteine peptide fold change ([2]; 50 µM): -0.29
